These are yes or no findings as the source states them, for the method shown. Some entries that bind do so weakly or less than the wild type. Where a sequence is shown, tags or fusion partners need not be part of it.
T1: IgaA fused to the T18 or the T25 fragment of adenylate cyclase (E. coli) (UniProt P45800)
T1 sequence: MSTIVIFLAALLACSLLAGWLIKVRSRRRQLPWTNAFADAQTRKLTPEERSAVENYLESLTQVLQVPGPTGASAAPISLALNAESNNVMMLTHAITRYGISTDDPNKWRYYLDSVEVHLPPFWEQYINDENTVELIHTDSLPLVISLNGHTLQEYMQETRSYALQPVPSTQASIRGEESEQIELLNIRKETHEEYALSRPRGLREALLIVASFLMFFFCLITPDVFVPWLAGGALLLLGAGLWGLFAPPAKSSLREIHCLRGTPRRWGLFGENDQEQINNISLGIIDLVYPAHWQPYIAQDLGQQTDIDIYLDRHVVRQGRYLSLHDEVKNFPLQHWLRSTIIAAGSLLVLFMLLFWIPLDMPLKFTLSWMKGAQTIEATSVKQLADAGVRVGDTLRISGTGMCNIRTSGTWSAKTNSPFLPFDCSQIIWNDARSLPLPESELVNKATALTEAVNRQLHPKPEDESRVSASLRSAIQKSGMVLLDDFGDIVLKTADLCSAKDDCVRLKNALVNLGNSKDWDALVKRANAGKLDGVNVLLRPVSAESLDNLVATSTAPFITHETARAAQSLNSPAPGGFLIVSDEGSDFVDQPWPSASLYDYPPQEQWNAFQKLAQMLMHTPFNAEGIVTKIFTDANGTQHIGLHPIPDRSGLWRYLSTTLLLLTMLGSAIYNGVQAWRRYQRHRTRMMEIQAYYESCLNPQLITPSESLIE

T2: RcsD fused to the T25 or the T18 fragment of adenylate cyclase (E. coli) (UniProt P39838)
T2 sequence: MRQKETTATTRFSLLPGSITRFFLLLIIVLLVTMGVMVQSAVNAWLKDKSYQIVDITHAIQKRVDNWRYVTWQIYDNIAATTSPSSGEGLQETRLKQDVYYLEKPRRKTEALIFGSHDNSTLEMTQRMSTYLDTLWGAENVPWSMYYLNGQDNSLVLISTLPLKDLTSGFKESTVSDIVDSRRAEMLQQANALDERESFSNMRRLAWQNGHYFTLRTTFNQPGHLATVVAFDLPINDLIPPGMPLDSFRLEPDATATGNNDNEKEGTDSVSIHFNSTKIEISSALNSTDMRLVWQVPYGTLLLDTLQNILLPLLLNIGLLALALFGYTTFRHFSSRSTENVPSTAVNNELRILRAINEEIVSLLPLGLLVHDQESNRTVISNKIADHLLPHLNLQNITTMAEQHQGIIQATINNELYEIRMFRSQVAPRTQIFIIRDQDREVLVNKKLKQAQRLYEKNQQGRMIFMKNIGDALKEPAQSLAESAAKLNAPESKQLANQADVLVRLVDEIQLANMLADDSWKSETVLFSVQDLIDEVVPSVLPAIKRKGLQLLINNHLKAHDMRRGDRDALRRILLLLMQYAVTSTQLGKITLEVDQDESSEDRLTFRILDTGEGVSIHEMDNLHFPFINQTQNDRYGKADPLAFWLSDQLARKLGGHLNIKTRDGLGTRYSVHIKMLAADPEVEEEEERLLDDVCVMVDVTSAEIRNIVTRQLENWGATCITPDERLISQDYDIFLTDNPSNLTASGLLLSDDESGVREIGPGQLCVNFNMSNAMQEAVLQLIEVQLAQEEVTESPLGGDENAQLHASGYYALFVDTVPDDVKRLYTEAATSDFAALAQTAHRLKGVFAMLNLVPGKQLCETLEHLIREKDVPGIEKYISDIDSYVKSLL


Experiments:
[1] = molecular target: T1, IgaA fused to the T18 or the T25 fragment of adenylate cyclase (E. coli); experiment: two-hybrid; bacterial adenylate cyclase two-hybrid (BACTH): T18 and T25 fragments fused C-terminally to the two proteins, two plasmids in cyaA deficient E. coli BTH101; beta-galactosidase activity (Miller units) against fusion plus empty cognate vector as background; threshold for reliable interaction 4x over background; IgaA/RcsD also tested in rcsB, rcsC, rcsF and rcsD mutant hosts; in the rows the T25 fusion is the binder, the T18 fusion the target
[2] = molecular target: T2, RcsD fused to the T25 or the T18 fragment of adenylate cyclase (E. coli); experiment: as above
[3] = molecular target: T1, IgaA fused to the T18 or the T25 fragment of adenylate cyclase (E. coli); experiment: two-hybrid; BACTH read on a Lactose MacConkey plate with Ampicillin and Kanamycin, BTH101 co-transformed with T18 and T25 plasmids, two days at 30°C; positive interactions are red

| binding [1] | binding [2] | binding [3] | Binder |
| --- | --- | --- | --- |
| no binding |  |  | RcsD_(326-C)-T25 (domain or fragment, UniProt P39838 326-890) GYTTFRHFSSRSTENVPSTAVNNELRILRAINEEIVSLLPLGLLVHDQESNRTVISNKIADHLLPHLNLQNITTMAEQHQGIIQATINNELYEIRMFRSQVAPRTQIFIIRDQDREVLVNKKLKQAQRLYEKNQQGRMIFMKNIGDALKEPAQSLAESAAKLNAPESKQLANQADVLVRLVDEIQLANMLADDSWKSETVLFSVQDLIDEVVPSVLPAIKRKGLQLLINNHLKAHDMRRGDRDALRRILLLLMQYAVTSTQLGKITLEVDQDESSEDRLTFRILDTGEGVSIHEMDNLHFPFINQTQNDRYGKADPLAFWLSDQLARKLGGHLNIKTRDGLGTRYSVHIKMLAADPEVEEEEERLLDDVCVMVDVTSAEIRNIVTRQLENWGATCITPDERLISQDYDIFLTDNPSNLTASGLLLSDDESGVREIGPGQLCVNFNMSNAMQEAVLQLIEVQLAQEEVTESPLGGDENAQLHASGYYALFVDTVPDDVKRLYTEAATSDFAALAQTAHRLKGVFAMLNLVPGKQLCETLEHLIREKDVPGIEKYISDIDSYVKSLL |
| no binding | no binding |  | RcsC fused to the T18 or the T25 fragment of adenylate cyclase (enzyme, UniProt P0DMC5 1-949) MKYLASFRTTLKASRYMFRALALVLWLLIAFSSVFYIVNALHQRESEIRQEFNLSSDQAQRFIQRTSDVMKELKYIAENRLSAENGVLSPRGRETQADVPAFEPLFADSDCSAMSNTWRGSLESLAWFMRYWRDNFSAAYDLNRVFLIGSDNLCMANFGLRDMPVERDTALKALHERINKYRNAPQDDSGSNLYWISEGPRPGVGYFYALTPVYLANRLQALLGVEQTIRMENFFLPGTLPMGVTILDENGHTLISLTGPESKIKGDPRWMQERSWFGYTEGFRELVLKKNLPPSSLSIVYSVPVDKVLERIRMLILNAILLNVLAGAALFTLARMYERRIFIPAESDALRLEEHEQFNRKIVASAPVGICILRTADGVNILSNELAHTYLNMLTHEDRQRLTQIICGQQVNFVDVLTSNNTNLQISFVHSRYRNENVAICVLVDVSSRVKMEESLQEMAQAAEQASQSKSMFLATVSHELRTPLYGIIGNLDLLQTKELPKGVDRLVTAMNNSSSLLLKIISDILDFSKIESEQLKIEPREFSPREVMNHITANYLPLVVRKQLGLYCFIEPDVPVALNGDPMRLQQVISNLLSNAIKFTDTGCIVLHVRADGDYLSIRVRDTGVGIPAKEVVRLFDPFFQVGTGVQRNFQGTGLGLAICEKLISMMDGDISVDSEPGMGSQFTVRIPLYGAQYPQKKGVEGLSGKRCWLAVRNASLCQFLETSLQRSGIVVTTYEGQEPTPEDVLITDEVVSKKWQGRAVVTFCRRHIGIPLEKAPGEWVHSVAAPHELPALLARIYLIEMESDDPANALPSTDKAVSDNDDMMILVVDDHPINRRLLADQLGSLGYQCKTANDGVDALNVLSKNHIDIVLSDVNMPNMDGYRLTQRIRQLGLTLPVIGVTANALAEEKQRCLESGMDSCLSKPVTLDVIKQTLTLYAERVRKSRDS |
| binds |  |  | RcsD_(1-461)-T25 (domain or fragment, UniProt P39838 1-461) MRQKETTATTRFSLLPGSITRFFLLLIIVLLVTMGVMVQSAVNAWLKDKSYQIVDITHAIQKRVDNWRYVTWQIYDNIAATTSPSSGEGLQETRLKQDVYYLEKPRRKTEALIFGSHDNSTLEMTQRMSTYLDTLWGAENVPWSMYYLNGQDNSLVLISTLPLKDLTSGFKESTVSDIVDSRRAEMLQQANALDERESFSNMRRLAWQNGHYFTLRTTFNQPGHLATVVAFDLPINDLIPPGMPLDSFRLEPDATATGNNDNEKEGTDSVSIHFNSTKIEISSALNSTDMRLVWQVPYGTLLLDTLQNILLPLLLNIGLLALALFGYTTFRHFSSRSTENVPSTAVNNELRILRAINEEIVSLLPLGLLVHDQESNRTVISNKIADHLLPHLNLQNITTMAEQHQGIIQATINNELYEIRMFRSQVAPRTQIFIIRDQDREVLVNKKLKQAQRLYEKNQQG |
| no binding |  |  | RcsD_(1-383)-T25 (domain or fragment, UniProt P39838 1-383) MRQKETTATTRFSLLPGSITRFFLLLIIVLLVTMGVMVQSAVNAWLKDKSYQIVDITHAIQKRVDNWRYVTWQIYDNIAATTSPSSGEGLQETRLKQDVYYLEKPRRKTEALIFGSHDNSTLEMTQRMSTYLDTLWGAENVPWSMYYLNGQDNSLVLISTLPLKDLTSGFKESTVSDIVDSRRAEMLQQANALDERESFSNMRRLAWQNGHYFTLRTTFNQPGHLATVVAFDLPINDLIPPGMPLDSFRLEPDATATGNNDNEKEGTDSVSIHFNSTKIEISSALNSTDMRLVWQVPYGTLLLDTLQNILLPLLLNIGLLALALFGYTTFRHFSSRSTENVPSTAVNNELRILRAINEEIVSLLPLGLLVHDQESNRTVISNK |
| binds |  |  | RcsD_(1-522)-T25 (domain or fragment, UniProt P39838 1-522) MRQKETTATTRFSLLPGSITRFFLLLIIVLLVTMGVMVQSAVNAWLKDKSYQIVDITHAIQKRVDNWRYVTWQIYDNIAATTSPSSGEGLQETRLKQDVYYLEKPRRKTEALIFGSHDNSTLEMTQRMSTYLDTLWGAENVPWSMYYLNGQDNSLVLISTLPLKDLTSGFKESTVSDIVDSRRAEMLQQANALDERESFSNMRRLAWQNGHYFTLRTTFNQPGHLATVVAFDLPINDLIPPGMPLDSFRLEPDATATGNNDNEKEGTDSVSIHFNSTKIEISSALNSTDMRLVWQVPYGTLLLDTLQNILLPLLLNIGLLALALFGYTTFRHFSSRSTENVPSTAVNNELRILRAINEEIVSLLPLGLLVHDQESNRTVISNKIADHLLPHLNLQNITTMAEQHQGIIQATINNELYEIRMFRSQVAPRTQIFIIRDQDREVLVNKKLKQAQRLYEKNQQGRMIFMKNIGDALKEPAQSLAESAAKLNAPESKQLANQADVLVRLVDEIQLANMLADDSWKS |
| binds |  |  | RcsD_(1-683)-T25 (domain or fragment, UniProt P39838 1-683) MRQKETTATTRFSLLPGSITRFFLLLIIVLLVTMGVMVQSAVNAWLKDKSYQIVDITHAIQKRVDNWRYVTWQIYDNIAATTSPSSGEGLQETRLKQDVYYLEKPRRKTEALIFGSHDNSTLEMTQRMSTYLDTLWGAENVPWSMYYLNGQDNSLVLISTLPLKDLTSGFKESTVSDIVDSRRAEMLQQANALDERESFSNMRRLAWQNGHYFTLRTTFNQPGHLATVVAFDLPINDLIPPGMPLDSFRLEPDATATGNNDNEKEGTDSVSIHFNSTKIEISSALNSTDMRLVWQVPYGTLLLDTLQNILLPLLLNIGLLALALFGYTTFRHFSSRSTENVPSTAVNNELRILRAINEEIVSLLPLGLLVHDQESNRTVISNKIADHLLPHLNLQNITTMAEQHQGIIQATINNELYEIRMFRSQVAPRTQIFIIRDQDREVLVNKKLKQAQRLYEKNQQGRMIFMKNIGDALKEPAQSLAESAAKLNAPESKQLANQADVLVRLVDEIQLANMLADDSWKSETVLFSVQDLIDEVVPSVLPAIKRKGLQLLINNHLKAHDMRRGDRDALRRILLLLMQYAVTSTQLGKITLEVDQDESSEDRLTFRILDTGEGVSIHEMDNLHFPFINQTQNDRYGKADPLAFWLSDQLARKLGGHLNIKTRDGLGTRYSVHIKMLAADPEV |
|  |  | binds | RcsD_(1-461, Δ45–304)-T25 (domain or fragment, UniProt P39838) MRQKETTATTRFSLLPGSITRFFLLLIIVLLVTMGVMVQSAVNATLQNILLPLLLNIGLLALALFGYTTFRHFSSRSTENVPSTAVNNELRILRAINEEIVSLLPLGLLVHDQESNRTVISNKIADHLLPHLNLQNITTMAEQHQGIIQATINNELYEIRMFRSQVAPRTQIFIIRDQDREVLVNKKLKQAQRLYEKNQQG |

From publication PMC7418988, “IgaA negatively regulates the Rcs Phosphorelay via contact with the RcsD Phosphotransfer Protein” (PLoS Genetics, 2020)
